From patent publication US10391070B2, “Compositions and methods for treating neurological diseases or injury” (MUSC FOUNDATION FOR RESEARCH DEVELOPMENT, priority 2012, dated 2019)
For part of these data: At least one structure is not confirmed: it was looked up by name or label, or the drawing left a doubt. Some results were stated once for a whole list of compounds, not compound by compound.

Experiments:
[1] = test system: HT-22 cells; test: Fluorometric ATP assay; assay type: cell-based, mouse; conditions: 8 h pretreatment
[2] = test system: HDAC; conditions: HDAC isozymes inhibited; cited from earlier work

| Compound | increase of total cellular ATP levels above control [1] | HDAC Class of Inhibition [2] |
| --- | --- | --- |
| O=C(NC1=CC(=O)c2ccccc2C1=O)c1ccccc1 [2-benzoylamino-1,4-naphthoquinone] | 22-28% | – |
| CN1CCc2c(c3ccccc3n2Cc2ccc(C(=O)NO)cc2)C1 [Tubastatin A (Tub A), Tubastatin A] | – | 6, 8 |
| O=C(NO)C(c1ccccc1)c1ccccc1 [Diphenyl acetic hydroxamic acid (dPAHA), diphenyl acetic hydroxamic acid] | – | 4, 5, 7, 8, 9 |
